Source: PubChem BioAssay AID1671190 (National Center for Advancing Translational Sciences (NCATS), 2021)
About 6,100 (1.1%) of roughly 580,000 compounds were called active. Inconclusive means that the source gave no clear call. Such entries were picked first, then a sample of the others. The call rests on the fitted dose curve; in most records, active means well fitted inhibition curve with a large enough effect; inconclusive means small, poorly fitted or top-dose-only effect, or another doubt; inactive means no such curve, though single readings can be large or run the other way. Potencies of inconclusive entries are doubtful fits and often do not repeat.
On the % scale 0 is the no-effect control and ±100 the full control effect; potency means the concentration at half of the fitted maximal effect.

The chains behind the UniProt entries cited, without tags or fusion partners.
UniProt P18054, whole entry, looked up: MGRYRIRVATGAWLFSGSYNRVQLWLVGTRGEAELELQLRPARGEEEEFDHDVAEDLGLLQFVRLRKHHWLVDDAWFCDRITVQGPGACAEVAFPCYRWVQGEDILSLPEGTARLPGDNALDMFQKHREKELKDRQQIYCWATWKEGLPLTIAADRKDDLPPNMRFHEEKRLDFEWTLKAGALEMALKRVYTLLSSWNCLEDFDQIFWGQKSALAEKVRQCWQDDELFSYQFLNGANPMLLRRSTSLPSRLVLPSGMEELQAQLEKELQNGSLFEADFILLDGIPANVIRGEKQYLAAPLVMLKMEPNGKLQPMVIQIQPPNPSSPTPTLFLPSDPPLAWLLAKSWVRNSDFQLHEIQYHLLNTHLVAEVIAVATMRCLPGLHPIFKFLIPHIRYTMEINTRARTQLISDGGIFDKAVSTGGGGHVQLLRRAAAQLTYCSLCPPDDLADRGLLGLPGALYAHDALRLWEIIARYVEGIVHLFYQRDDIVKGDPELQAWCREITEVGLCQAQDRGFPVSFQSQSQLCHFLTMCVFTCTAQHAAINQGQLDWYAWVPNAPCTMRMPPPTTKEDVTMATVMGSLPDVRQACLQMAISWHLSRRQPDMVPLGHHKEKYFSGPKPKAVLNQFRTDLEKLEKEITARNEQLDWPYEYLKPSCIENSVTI

The compounds below were run against Polyunsaturated fatty acid lipoxygenase ALOX12 (Homo sapiens) (UniProt P18054) (assay: Primary qHTS assay for inhibitors of human arachidonate 12S-lipoxygenase (ALOX12): Round 2). Conditions: purified 12hLO, xylenol orange hydroperoxide absorbance; activity change, negative = inhibition: at 108 µM (top of the series) unless noted.
In short: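 Purified human 12hLO at 150 nM in 25 mM Hepes, 0.01% Triton X-100, pH 7.0, preincubated 15 min at room temperature with compound. Reaction started with 40 uM arachidonic acid, 30 min at room temperature. Hydroperoxide measured by Fe-xylenol orange, 573/405 nm absorbance ratio.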
In the case of Cc1cc(NC(=O)CSc2ccc(Cl)cc2)no1, the Potency is reported as inconclusive: 141 µM [inhibitor, partial curve, poor fit].
For CCC(C(=O)NC(C)(C)C)N(C(=O)Cn1nnc(-c2ccccc2F)n1)c1cccc2c1CCCC2 (configuration not stated), the Potency was inconclusive: 0.562 µM [inhibitor, full curve, poor fit].
CC(=O)c1c(C)nc(C2CC2)nc1SCC(=O)NC(C)C12CC3CC(CC(C3)C1)C2 (configuration not stated) was tested, and the “activity change, negative = inhibition” value was inactive: -8.76%.
For O=C(OCn1nnc2ccccc2c1=O)c1ccc(Br)o1, the Potency was inconclusive: 141 µM [inhibitor, partial curve, poor fit].
In the case of CC(=O)NNC(=S)Nc1cc(Cl)cc(Cl)c1, the “activity change, negative = inhibition” value is reported as inactive: -1.58%.
With CCCCN1C(=O)CC[C@H]2CN(C(=O)Cc3cnccn3)CC[C@H]21 the “activity change, negative = inhibition” value was inactive: 25.7%.
Cc1nn(CC(=O)NC2CC(c3nnc(CN(C)C)n3C)C2)c(C)c1Cl (configuration not stated) was tested, and the “activity change, negative = inhibition” value was inactive: 15.3%.
With Cc1ccc(CN2C(=O)NC3(CCN(C(=O)c4cccc(Cl)c4)C3)C2=O)cc1 (configuration not stated) the Potency was inconclusive: 28.2 µM [inhibitor, full curve].
For O=C(CCn1cnnn1)Nc1ccccc1, the Potency was inconclusive: 0.794 µM [inhibitor, full curve, poor fit].
For Cc1cccc2nc(COc3ccc4ccc(=O)oc4c3)cc(=O)n12, the Potency was inconclusive: 5.01 µM [inhibitor, full curve].
With CC(C)CSc1nc2ccccc2n1CC(=O)O the Potency was inconclusive: 50.1 µM [inhibitor, partial curve, poor fit].
In the case of COC(=O)c1ccc(C2/C(=C(/O)c3ccc(OC)cc3)C(=O)C(=O)N2Cc2ccco2)cc1 (configuration not stated), the Potency is reported as inconclusive: 39.8 µM [inhibitor, partial curve, poor fit].
For COc1ccc(NC(=O)c2sc3nc4c(c(-c5ccco5)c3c2N)CCCCC4)cc1, the “activity change, negative = inhibition” value was inactive: 1.39%.
For CCc1noc([C@@H]2CC(F)(F)CN2C(=O)c2ccoc2C)n1, the Potency was inconclusive: 22.4 µM [inhibitor, full curve].
For O=C(CSc1nc2c([nH]c3ccccc32)c(=O)n1-c1ccccc1)Nc1ccccc1F, the “activity change, negative = inhibition” value was inactive: -19.3%.
With O=[N+]([O-])c1ccccc1OCCN1CCOCC1 the Potency was inconclusive: 100 µM [inhibitor, single point].
With Oc1ccc(C[C@@H]2CNCCN2CC2(c3ccccc3)CC2)cc1 the “activity change, negative = inhibition” value was inactive: -11.6%.
O=[N+]([O-])c1ccccc1/C=N/NC1=NCCN1 was tested, and the “activity change, negative = inhibition” value was inactive: 0%.
NCCSc1c(-c2ccc(Cl)cc2)[nH]c2ccccc12 was tested, and the “activity change, negative = inhibition” value was inactive: -15.8%.
O=C(N/N=C/c1cc2c(cc1Br)OCO2)c1ccccn1 was tested, and the “activity change, negative = inhibition” value was inactive: 127%.
In the case of Cc1ccccc1-c1nn(-c2ccc(F)cc2F)cc1CNCCN(C)C, the “activity change, negative = inhibition” value is reported as inactive: 41.9%.
CC[n+]1c(/C=C2/C=C(C)CC(C)(C)C2)sc2ccc(OC)cc21 was tested, and the Potency was inconclusive: 2.51 µM [inhibitor, full curve, poor fit].
C/C(=N\N=C(N)N)c1cccc([N+](=O)[O-])c1 was tested, and the Potency was inconclusive: 7.08 µM [inhibitor, full curve, poor fit].
In the case of OC[C@@H]1[C@@H](c2ccccc2)C(c2cccc(Cl)c2)=NN1c1ccccc1, the Potency is reported as inconclusive: 50.1 µM [inhibitor, partial curve, poor fit].
In the case of COc1ccc2ccc(OCC(=O)N3c4ccccc4NC(=O)CC3C)cc2c1 (configuration not stated), the Potency is reported as inconclusive: 112 µM [inhibitor, single point].
For S=C(Nc1ccccc1)c1ccccn1, the “activity change, negative = inhibition” value was inactive: 0%.
With COc1ccc(C(=O)N2CCC(Oc3ccccc3)C2)cc1 (configuration not stated) the “activity change, negative = inhibition” value was inactive: 21.1%.
For Cc1c(Cl)cccc1NC(=S)NCc1ccccc1, the Potency was inconclusive: 35.5 µM [inhibitor, partial curve].
CCc1cc2c(nc1CC)CCCN2S(=O)(=O)c1ccc(C#N)cc1 was tested, and the Potency was inconclusive: 35.5 µM [inhibitor, partial curve, poor fit].
With COc1ccc(Br)cc1CN1CCN(C(=O)c2ccc(OC)c(OC)c2)CC1 the Potency was inconclusive: 1.78 µM [inhibitor, full curve].
In the case of COc1cccc(-c2cc3nc(NCc4ccc(C)cc4C)n(C)c(=O)c3s2)c1, the Potency is reported as inconclusive: 126 µM [inhibitor, single point].
With COc1ccc(N2C3=C(CC4=C2CC(C)(C)CC4=O)C(=O)CC(C)(C)C3)cc1 the “activity change, negative = inhibition” value was inactive: 27.8%.
With O=C(O)CC/C(=N/Nc1ccc([N+](=O)[O-])cc1)C(=O)O the Potency was inconclusive: 56.2 µM [inhibitor, partial curve, poor fit].
CCCCN1C(=O)C(O)(CC(=O)c2cccnc2)c2ccccc21 (configuration not stated) was tested, and the Potency was inconclusive: 100 µM [inhibitor, single point].
For O=C(Nc1cccnc1)C1Cc2c(-c3ccco3)ccnc2O1 (configuration not stated), the “activity change, negative = inhibition” value was inactive: 6.67%.
For COc1ccc(NC(=O)C2=C(C)Nc3nc4ccccc4n3C2c2ccccc2C)cc1 (configuration not stated), the “activity change, negative = inhibition” value was inactive: -7.09%.
In the case of N#Cc1c(-c2ccccc2)cc(-c2cccs2)nc1SCC(=O)O, the Potency is reported as inconclusive: 89.1 µM [inhibitor, partial curve, poor fit].
For CC(C)Cn1nc2n(c1=O)CCN(S(=O)(=O)c1cccc3cccnc13)CC2, the Potency was inconclusive: 44.7 µM [inhibitor, partial curve].
With CN1Cc2c(N3CCOCC3)nc(SCCC#N)c(C#N)c2CC1(C)C the “activity change, negative = inhibition” value was inactive: 23.3%.
In the case of CC(c1ccccc1)N(CCC(c1ccccc1)C1CCOC(C)(C)C1)C(=O)c1ccco1 (configuration not stated), the “activity change, negative = inhibition” value is reported as inactive: -27.5%.
COc1ccc(C2C(C(C)=O)=C(O)C(=O)N2c2ccc(OC)cc2)cc1 (configuration not stated) was tested, and the Potency was inconclusive: 44.7 µM [inhibitor, partial curve, poor fit].
In the case of CCCN1CCC2(CCN([S+](=O)([O-])c3ccc(C)cc3)CC2)Oc2ccccc21, the Potency is reported as inconclusive: 20 µM [inhibitor, partial curve].
With COc1ccc(OC)c(-c2cc(C(=O)Nc3cc(C)on3)no2)c1 the “activity change, negative = inhibition” value was inactive: 0%.
In the case of CSc1cccc(NC(=O)/C=C/c2ccco2)c1, the Potency is reported as inconclusive: 44.7 µM [inhibitor, partial curve, poor fit].
Cc1ccc(Nc2nc(-c3ccc(S(=O)(=O)N4CCCC4)cc3)cs2)cc1C was tested, and the “activity change, negative = inhibition” value was inactive: -22.6%.
In the case of Cc1ccc(NC(=S)NC(=O)C2CCCC2)c(Br)c1, the Potency is reported as active: 35.5 µM.
Cc1ccc(S(=O)(=O)N2CCN(C(=O)/C=C/c3ccco3)CC2)cc1 was tested, and the Potency was inconclusive: 100 µM [inhibitor, single point].
CCOc1ncccc1C(=O)OCC(=O)c1c(N)n(C)c(=O)n(C)c1=O was tested, and the Potency was inconclusive: 100 µM [inhibitor, single point].
COc1ccc(/C=N\N=C2/SC(CC(=O)O)C(=O)N2c2ccc(O)cc2)cc1OC (configuration not stated) was tested, and the “activity change, negative = inhibition” value was inactive: 5.56%.
CSc1nnc(-c2ccc(C(F)(F)F)nc2C)o1 was tested, and the Potency was inconclusive: 100 µM [inhibitor, single point].
In the case of CCOC(=O)c1c(-c2cccc([N+](=O)[O-])c2)csc1N, the Potency is reported as inconclusive: 89.1 µM [inhibitor, single point].
Nc1ccccc1C(=O)N1CCCC1 was tested, and the “activity change, negative = inhibition” value was inactive: -16%.
Cc1ccc(C2(C(=O)N[C@@H]3COCC[C@@H]3OCc3ccccc3)CC2)cc1 was tested, and the “activity change, negative = inhibition” value was inactive: 24.9%.
For O=C(Cc1n[nH]c(=O)c2ccccc12)NC1CCCc2c1[nH]c1ccccc21 (configuration not stated), the Potency was active: 44.7 µM.
With CCC(C)(C)n1nnnc1C(c1ccc(OC)c(OC)c1)N1CCN(c2ccc(OC)cc2)CC1 (configuration not stated) the Potency was inconclusive: 56.2 µM [inhibitor, partial curve, poor fit].
CCOC(=O)c1[nH]c(C)c(CCC(=O)NCc2ccc(OC(C)C)cc2)c1C was tested, and the Potency was inconclusive: 112 µM [inhibitor, partial curve, poor fit].
For O=C(O)CN1CCN(C(c2ccccc2)c2ccccc2)CC1, the Potency was inconclusive: 7.08 µM [inhibitor, partial curve, poor fit].
For CCOC(=O)C1CCN(S(=O)(=O)c2ccc3c(c2)CC(=O)N3C)CC1, the Potency was active: 44.7 µM.
For O=S(=O)(c1cccs1)N1CN(Cc2ccc(Cl)cc2)c2nc3ccccc3nc21, the Potency was inconclusive: 89.1 µM [inhibitor, single point].
For Cc1cc(Nc2cccc(O)c2)c2cccc(Br)c2n1, the Potency was inconclusive: 50.1 µM [inhibitor, partial curve, poor fit].
With CCCCN1C(=O)C(CC(=O)NC(C)C)Sc2ncccc21 (configuration not stated) the “activity change, negative = inhibition” value was inactive: 3.57%.
O=C(NNc1nc2cc3c(cc2s1)OCO3)c1ccc(F)cc1 was tested, and the “activity change, negative = inhibition” value was inactive: -25.9%.
For O=C(c1ccc(Cn2cncn2)cc1)N1CCN(c2ccccc2F)CC1, the “activity change, negative = inhibition” value was inactive: -6.99%.
Cc1ccc(N2CCN(/N=C/c3c(C)nn(-c4ccccc4)c3Cl)CC2)cc1 was tested, and the “activity change, negative = inhibition” value was inactive: -2.41%.
With Cc1cc(C)n(-c2nc(C(F)(F)F)nc3ccccc23)n1 the Potency was inconclusive: 31.6 µM [inhibitor, partial curve, poor fit].
In the case of CCN1CCN(Cc2cc(=O)oc3cc(C)c(C)cc23)CC1, the Potency is reported as inconclusive: 56.2 µM [inhibitor, partial curve, poor fit].
O=C(NC(NNc1ccc([N+](=O)[O-])cc1)(C(F)(F)F)C(F)(F)F)c1ccc(Cl)cc1 was tested, and the Potency was active: 35.5 µM.
In the case of O=[N+]([O-])c1ccc(CN2CC(N3CCN(CCO)CC3)CS2(=O)=O)cc1 (configuration not stated), the Potency is reported as inconclusive: 158 µM [inhibitor, single point].
With COc1cccc(CN2CCOC3CCN(CCCc4ccccc4)CC3C2=O)c1 (configuration not stated) the “activity change, negative = inhibition” value was inactive: -2.2% [at 176 µM].
For CN(CCc1ccccc1)C(c1cc2ccccc2o1)c1nnnn1C(C)(C)C (configuration not stated), the Potency was inconclusive: 0.398 µM [inhibitor, full curve, poor fit].
For O=c1oc2ccccc2c(N2CCCC2)c1NS(=O)(=O)c1ccc(Br)cc1, the Potency was inconclusive: 56.2 µM [inhibitor, partial curve, poor fit].
For Cc1ccc(C(=O)c2sc(Nc3cccc(Cl)c3)nc2N)cc1, the Potency was inconclusive: 100 µM [inhibitor, partial curve, poor fit].
